From US20080306109A1, “Indolizine Derivatives as Ligands of the Crth2 Receptor” (priority 2005, published 2008)
Some entries share one result that the patent states for a list of compounds.

Molecular target: T1, CRTH2 receptor (Homo sapiens, UniProt Q9Y5Y4)
T1 construct: expressed in transfected cells; host or cells: Human embryonic kidney (HEK) cell membranes
T1 sequence (Q9Y5Y4 1-395): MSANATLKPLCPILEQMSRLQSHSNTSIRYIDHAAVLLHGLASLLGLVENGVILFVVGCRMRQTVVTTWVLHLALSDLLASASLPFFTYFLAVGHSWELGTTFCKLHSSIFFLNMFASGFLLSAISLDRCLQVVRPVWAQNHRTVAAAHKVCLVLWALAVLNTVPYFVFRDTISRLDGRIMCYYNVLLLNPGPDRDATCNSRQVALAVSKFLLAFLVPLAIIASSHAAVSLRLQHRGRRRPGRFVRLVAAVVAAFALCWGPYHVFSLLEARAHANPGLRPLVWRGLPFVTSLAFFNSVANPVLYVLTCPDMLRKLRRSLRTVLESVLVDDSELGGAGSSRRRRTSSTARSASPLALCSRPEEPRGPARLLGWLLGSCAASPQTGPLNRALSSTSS
Assay: GTPγS functional assay
Format: biochemical
Conditions: HEK cell membranes expressing the CRTH2 receptor, PGD2 30 nM

Cc1c(S(=O)(=O)c2ccc(F)cc2)c2ccccn2c1CC(=O)O [Example 4, [1-(4-fluorobenzenesulfonyl)-2-methylindolizin-3-yl]acetic acid]
IC50: < 1 µM

Cc1c(S(=O)(=O)c2ccc(Cl)cc2)c2ccccn2c1CC(=O)O [Example 2, [1-(4-chlorobenzenesulfonyl)-2-methylindolizin-3-yl]acetic acid]
IC50: < 1 µM

Cc1c(C(=O)c2ccccc2)c2ccccn2c1CC(=O)O [Example 3, (1-benzoyl-2-methylindolizin-3-yl)acetic acid]
IC50: < 1 µM

Cc1c(Sc2ccc(S(C)(=O)=O)cc2)c2ccccn2c1CC(=O)O [Example 1, [1-(4-methanesulfonylphenylsulfanyl)-2-methylindolizin-3-yl]acetic acid]
IC50: < 1 µM
